This is a selection; strong and weak results do not stand in their true shares.
Compound: COC(=O)C#Cc1ccccc1 [methyl 3-phenylpropiolate]
Assay: log2 ratio of iodoacetamide-alkyne labeling of the cysteine site, DMSO over compound (competition); higher = stronger covalent engagement of the cysteine by the compound, active = 1 or more
Settings: 500 µM; treatment time 1 h; system: HEK293T cell lysate
How it was run: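 HEK293T lysate (2 mg/mL) was incubated with electrophile (500 µM) or vehicle for 1 h at ambient temperature and then with iodoacetamide alkyne for 1 h. Labelled proteins were clicked to sCIP-TMT reagents, pooled, digested, enriched on streptavidin and measured by Orbitrap Eclipse LC-MS/MS with FAIMS, with FragPipe quantification. The per-cysteine log2 competition ratio is mean control-channel reporter intensity over mean compound-channel reporter intensity. Across three replicates with duplicate channels, cysteines quantified in only one replicate were excluded.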

Chains of the proteins cited; added tags and fusions are not shown. Lines headed by an entry give the natural chain unless they say otherwise; changes in a name come on top.
UniProt Q9Y383: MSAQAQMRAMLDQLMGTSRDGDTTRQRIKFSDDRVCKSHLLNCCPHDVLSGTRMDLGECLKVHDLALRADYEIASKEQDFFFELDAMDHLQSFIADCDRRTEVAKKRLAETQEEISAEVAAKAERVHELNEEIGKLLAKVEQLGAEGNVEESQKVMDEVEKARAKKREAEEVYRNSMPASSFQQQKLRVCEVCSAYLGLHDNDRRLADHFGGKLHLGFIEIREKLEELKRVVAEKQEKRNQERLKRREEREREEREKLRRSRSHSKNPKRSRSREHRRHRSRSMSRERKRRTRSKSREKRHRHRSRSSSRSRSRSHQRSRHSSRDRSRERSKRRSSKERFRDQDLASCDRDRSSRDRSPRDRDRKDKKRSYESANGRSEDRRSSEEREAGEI
UniProt Q9UPU5: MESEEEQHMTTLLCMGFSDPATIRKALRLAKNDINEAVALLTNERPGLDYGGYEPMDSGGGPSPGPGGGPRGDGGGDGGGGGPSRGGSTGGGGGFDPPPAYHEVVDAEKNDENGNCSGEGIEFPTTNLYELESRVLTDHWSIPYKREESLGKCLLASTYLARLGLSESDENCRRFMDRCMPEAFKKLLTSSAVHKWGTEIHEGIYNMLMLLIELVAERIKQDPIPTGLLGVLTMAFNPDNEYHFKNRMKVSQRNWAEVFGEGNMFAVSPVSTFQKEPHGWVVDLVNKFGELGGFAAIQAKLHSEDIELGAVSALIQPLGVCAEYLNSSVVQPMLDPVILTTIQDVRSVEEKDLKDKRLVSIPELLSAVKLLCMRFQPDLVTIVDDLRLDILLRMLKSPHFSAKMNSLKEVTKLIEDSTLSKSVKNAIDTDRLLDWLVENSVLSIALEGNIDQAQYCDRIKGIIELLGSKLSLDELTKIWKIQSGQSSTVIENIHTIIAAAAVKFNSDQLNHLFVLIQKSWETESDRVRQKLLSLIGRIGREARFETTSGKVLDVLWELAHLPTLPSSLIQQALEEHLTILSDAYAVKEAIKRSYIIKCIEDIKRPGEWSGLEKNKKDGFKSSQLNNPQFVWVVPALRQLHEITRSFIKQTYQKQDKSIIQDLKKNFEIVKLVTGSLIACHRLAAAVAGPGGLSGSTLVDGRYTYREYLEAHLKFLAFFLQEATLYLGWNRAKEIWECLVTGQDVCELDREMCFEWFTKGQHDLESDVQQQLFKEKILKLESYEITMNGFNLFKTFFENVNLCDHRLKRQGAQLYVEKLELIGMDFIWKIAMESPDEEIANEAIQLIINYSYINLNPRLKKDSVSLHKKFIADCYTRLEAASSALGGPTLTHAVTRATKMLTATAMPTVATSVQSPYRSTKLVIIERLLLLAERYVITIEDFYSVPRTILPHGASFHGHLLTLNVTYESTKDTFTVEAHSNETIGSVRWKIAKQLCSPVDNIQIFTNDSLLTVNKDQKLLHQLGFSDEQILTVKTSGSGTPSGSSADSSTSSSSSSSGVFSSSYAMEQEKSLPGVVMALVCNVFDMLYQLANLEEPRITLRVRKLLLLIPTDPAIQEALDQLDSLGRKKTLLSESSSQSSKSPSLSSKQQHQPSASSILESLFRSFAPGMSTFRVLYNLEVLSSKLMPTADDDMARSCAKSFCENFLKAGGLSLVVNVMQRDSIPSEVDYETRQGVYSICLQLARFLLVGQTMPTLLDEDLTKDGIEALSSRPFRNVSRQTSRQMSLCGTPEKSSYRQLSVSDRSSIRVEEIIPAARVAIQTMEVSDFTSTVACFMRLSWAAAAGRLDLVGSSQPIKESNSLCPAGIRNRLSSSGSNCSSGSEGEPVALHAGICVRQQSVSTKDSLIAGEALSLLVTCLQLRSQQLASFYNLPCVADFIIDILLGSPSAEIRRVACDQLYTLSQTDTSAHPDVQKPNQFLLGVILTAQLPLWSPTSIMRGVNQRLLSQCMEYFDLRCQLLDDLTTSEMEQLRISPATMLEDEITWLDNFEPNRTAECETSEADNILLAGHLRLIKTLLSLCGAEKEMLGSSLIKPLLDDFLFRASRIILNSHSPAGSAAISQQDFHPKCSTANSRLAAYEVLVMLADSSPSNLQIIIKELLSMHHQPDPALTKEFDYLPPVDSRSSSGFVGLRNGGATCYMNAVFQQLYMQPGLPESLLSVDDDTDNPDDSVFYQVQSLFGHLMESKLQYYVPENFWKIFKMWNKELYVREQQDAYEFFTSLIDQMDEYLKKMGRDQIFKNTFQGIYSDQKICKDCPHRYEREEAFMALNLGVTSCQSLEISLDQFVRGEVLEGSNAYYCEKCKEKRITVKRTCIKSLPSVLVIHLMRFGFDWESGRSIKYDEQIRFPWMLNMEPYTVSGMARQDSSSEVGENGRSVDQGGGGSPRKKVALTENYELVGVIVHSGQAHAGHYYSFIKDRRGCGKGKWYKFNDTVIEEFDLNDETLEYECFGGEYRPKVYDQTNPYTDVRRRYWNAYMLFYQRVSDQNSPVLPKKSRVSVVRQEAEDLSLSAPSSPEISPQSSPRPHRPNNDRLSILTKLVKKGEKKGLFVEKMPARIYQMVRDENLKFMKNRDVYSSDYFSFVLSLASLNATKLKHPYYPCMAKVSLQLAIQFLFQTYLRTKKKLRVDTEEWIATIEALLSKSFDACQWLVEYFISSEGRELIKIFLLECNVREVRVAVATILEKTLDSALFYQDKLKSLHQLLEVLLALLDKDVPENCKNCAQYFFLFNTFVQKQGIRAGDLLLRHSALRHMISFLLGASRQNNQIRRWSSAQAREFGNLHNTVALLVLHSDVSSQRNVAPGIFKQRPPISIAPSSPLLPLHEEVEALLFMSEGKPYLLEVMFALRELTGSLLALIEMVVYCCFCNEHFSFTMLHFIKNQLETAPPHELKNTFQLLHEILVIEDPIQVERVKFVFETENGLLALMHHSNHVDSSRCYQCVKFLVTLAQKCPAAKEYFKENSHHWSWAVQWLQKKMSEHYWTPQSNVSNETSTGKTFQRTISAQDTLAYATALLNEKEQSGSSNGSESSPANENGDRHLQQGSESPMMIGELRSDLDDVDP
UniProt Q9UPN4: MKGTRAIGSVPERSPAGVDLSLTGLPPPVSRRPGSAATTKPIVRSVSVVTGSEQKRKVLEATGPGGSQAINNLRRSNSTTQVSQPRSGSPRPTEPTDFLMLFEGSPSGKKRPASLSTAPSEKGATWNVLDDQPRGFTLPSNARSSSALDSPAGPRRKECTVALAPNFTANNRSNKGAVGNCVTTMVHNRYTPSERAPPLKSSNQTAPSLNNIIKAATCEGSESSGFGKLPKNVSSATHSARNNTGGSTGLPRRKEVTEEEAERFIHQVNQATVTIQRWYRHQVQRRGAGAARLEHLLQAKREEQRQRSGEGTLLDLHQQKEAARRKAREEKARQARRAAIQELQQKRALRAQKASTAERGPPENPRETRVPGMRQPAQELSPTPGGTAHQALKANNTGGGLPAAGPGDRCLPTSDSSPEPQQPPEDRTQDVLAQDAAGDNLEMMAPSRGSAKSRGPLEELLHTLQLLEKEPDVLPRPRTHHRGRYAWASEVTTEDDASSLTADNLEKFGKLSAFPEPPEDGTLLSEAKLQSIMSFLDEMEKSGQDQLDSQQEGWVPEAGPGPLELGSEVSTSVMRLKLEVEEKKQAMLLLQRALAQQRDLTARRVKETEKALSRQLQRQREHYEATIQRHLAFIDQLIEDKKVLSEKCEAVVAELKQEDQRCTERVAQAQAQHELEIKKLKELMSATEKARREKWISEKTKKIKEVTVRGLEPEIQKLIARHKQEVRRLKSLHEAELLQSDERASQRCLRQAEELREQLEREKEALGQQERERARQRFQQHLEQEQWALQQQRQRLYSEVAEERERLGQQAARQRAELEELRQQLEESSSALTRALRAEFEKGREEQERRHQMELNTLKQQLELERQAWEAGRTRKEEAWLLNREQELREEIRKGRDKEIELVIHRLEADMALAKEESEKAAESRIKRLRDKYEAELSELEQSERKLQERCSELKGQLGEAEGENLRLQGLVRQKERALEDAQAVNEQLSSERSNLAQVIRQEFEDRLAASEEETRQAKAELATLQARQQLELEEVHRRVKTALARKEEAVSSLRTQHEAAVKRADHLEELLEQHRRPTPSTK
UniProt Q9UJ41, whole entry, looked up: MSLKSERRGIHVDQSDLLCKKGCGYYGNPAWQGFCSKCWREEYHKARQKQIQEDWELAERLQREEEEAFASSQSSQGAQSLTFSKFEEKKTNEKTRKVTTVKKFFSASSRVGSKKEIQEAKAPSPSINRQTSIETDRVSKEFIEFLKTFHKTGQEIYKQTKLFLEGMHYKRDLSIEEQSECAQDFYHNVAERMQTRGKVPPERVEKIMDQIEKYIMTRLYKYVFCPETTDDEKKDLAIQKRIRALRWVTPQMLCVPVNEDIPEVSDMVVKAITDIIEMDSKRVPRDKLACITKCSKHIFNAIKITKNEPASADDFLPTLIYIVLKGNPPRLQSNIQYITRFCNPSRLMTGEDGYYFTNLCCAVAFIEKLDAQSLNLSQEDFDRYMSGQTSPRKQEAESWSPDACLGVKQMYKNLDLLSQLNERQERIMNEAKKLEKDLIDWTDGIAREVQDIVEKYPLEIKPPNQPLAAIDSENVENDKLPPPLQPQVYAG
UniProt Q9Y3B2, whole entry, looked up: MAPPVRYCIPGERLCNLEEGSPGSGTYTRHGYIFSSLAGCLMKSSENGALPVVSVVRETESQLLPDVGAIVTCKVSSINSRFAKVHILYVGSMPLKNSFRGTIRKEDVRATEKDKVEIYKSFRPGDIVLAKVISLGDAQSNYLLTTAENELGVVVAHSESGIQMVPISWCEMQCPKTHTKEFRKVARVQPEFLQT
UniProt Q9UNE7: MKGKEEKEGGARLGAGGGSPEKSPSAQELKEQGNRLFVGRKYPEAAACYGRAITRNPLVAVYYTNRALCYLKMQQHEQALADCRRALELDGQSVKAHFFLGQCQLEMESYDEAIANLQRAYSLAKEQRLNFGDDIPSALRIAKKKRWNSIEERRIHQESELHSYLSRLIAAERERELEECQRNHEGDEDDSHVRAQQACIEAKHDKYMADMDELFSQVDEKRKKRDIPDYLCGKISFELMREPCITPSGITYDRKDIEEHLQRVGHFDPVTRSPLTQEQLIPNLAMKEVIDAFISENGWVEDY
UniProt Q9UMS0: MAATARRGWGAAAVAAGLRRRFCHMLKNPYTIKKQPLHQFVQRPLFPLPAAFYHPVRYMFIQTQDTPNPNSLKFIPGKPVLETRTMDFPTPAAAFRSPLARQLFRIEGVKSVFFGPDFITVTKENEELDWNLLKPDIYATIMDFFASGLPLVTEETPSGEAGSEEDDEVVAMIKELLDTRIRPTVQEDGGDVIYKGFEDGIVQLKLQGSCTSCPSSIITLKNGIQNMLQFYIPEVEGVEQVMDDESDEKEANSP
UniProt Q9Y312: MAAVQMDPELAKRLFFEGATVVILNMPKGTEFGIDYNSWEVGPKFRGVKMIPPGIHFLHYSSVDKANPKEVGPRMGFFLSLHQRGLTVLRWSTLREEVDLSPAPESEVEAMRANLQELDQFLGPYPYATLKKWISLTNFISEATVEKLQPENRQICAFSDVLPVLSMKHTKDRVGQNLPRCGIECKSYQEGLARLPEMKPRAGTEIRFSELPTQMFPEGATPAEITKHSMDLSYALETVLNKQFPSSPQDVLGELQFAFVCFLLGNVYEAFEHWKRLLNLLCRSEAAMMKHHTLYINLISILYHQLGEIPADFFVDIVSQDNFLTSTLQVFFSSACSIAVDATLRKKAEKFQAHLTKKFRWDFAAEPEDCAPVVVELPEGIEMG
UniProt Q9UHI6: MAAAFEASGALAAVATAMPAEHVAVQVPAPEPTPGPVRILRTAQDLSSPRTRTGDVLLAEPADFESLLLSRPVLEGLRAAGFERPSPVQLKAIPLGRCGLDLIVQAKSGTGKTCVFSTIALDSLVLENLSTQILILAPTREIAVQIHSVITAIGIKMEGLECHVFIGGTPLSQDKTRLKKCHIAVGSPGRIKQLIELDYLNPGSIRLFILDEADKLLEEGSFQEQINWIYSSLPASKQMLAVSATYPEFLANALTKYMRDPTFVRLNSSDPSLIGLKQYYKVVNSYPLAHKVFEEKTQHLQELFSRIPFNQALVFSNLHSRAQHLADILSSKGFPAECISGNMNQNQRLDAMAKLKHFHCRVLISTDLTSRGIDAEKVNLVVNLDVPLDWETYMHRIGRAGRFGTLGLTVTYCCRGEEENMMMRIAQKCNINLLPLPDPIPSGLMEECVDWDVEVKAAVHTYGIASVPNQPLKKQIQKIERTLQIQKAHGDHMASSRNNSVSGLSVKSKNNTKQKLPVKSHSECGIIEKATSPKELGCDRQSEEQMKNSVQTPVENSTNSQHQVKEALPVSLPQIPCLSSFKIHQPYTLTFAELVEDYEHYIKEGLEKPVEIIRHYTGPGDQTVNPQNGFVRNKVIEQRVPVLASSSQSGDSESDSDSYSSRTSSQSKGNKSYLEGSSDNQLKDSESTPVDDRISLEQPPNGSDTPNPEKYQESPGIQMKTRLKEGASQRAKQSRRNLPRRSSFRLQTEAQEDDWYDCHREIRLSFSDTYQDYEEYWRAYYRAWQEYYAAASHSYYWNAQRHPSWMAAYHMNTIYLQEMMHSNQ

Row | Target | log2 ratio of iodoacetamide-alkyne labeling
1 | LUC7L2 C36 (UniProt Q9Y383) | inactive: 0.0766
2 | VPS4A C359 (UniProt Q9UN37) | inactive: 0.151
3 | GTF3C4 C713 (UniProt Q9UKN8) | inactive: 0.141
4 | VAV3 C44 (UniProt Q9UKW4) | inactive: -0.271
5 | HERC5 C994 (UniProt Q9UII4) | inactive: 0.115
6 | USP24 C172 (UniProt Q9UPU5) | inactive: 0.54
7 | LUC7L2 C59 (UniProt Q9Y383) | inactive: -0.0608
8 | MED23 C1043 (UniProt Q9ULK4) | inactive: 0.807
9 | AGTPBP1 C567 (UniProt Q9UPW5) | active: 1.18
10 | UniProt Q9UPN4_C159 | inactive: 0.5
11 | BAZ1B C994 (UniProt Q9UIG0) | inactive: 0.236
12 | RABGEF1 C359 (UniProt Q9UJ41) | inactive: 0.223
13 | MTO1 C77 (UniProt Q9Y2Z2) | inactive: 0.833
14 | DCTN4 C30 (UniProt Q9UJW0) | inactive: -0.0368
15 | SCML2 C559 (UniProt Q9UQR0) | inactive: 0.722
16 | ACOT9 C299 (UniProt Q9Y305) | inactive: -0.0311
17 | MED23 C1069 (UniProt Q9ULK4) | inactive: 0.655
18 | EXOSC1 C15 (UniProt Q9Y3B2) | inactive: 0.278
19 | RASAL2 C333 (UniProt Q9UJF2) | inactive: 0.326

Exported tab-delimited: entries from further up.
Row	Target	log2 ratio of iodoacetamide-alkyne labeling
4	VAV3 C44 (UniProt Q9UKW4)	inactive: -0.271
14	DCTN4 C30 (UniProt Q9UJW0)	inactive: -0.0368
19	RASAL2 C333 (UniProt Q9UJF2)	inactive: 0.326

(list continues)

Row | Target | log2 ratio of iodoacetamide-alkyne labeling
20 | SCML2 C324 (UniProt Q9UQR0) | inactive: 0.501
21 | STUB1 C232 (UniProt Q9UNE7) | inactive: 0.0873
22 | NFU1 C213 (UniProt Q9UMS0) | inactive: 0.895
23 | STUB1 C48 (UniProt Q9UNE7) | inactive: 0.0575
24 | SHOC2 C306 (UniProt Q9UQ13) | inactive: 0.273
25 | MRPL11 C50 (UniProt Q9Y3B7) | inactive: -0.0706
26 | UniProt Q9Y312_C156 | inactive: 0.41
27 | RCL1 C13 (UniProt Q9Y2P8) | inactive: -0.0901
28 | DDX20 C538 (UniProt Q9UHI6) | inactive: 0.312
29 | COG5 C64 (UniProt Q9UP83) | inactive: 0.802
30 | INTS6 C219 (UniProt Q9UL03) | inactive: 0.124
31 | DDX20 C577 (UniProt Q9UHI6) | inactive: 0.339
32 | AGTPBP1 C558 (UniProt Q9UPW5) | inactive: -0.228
33 | VPS51 C254 (UniProt Q9UID3) | inactive: 0.563
34 | LUC7L2 C97 (UniProt Q9Y383) | inactive: -0.0874
35 | GTF3C4 C116 (UniProt Q9UKN8) | inactive: 0.222
36 | HECTD1 C2579 (UniProt Q9ULT8) | inactive: 0.335
37 | DDX20 C98 (UniProt Q9UHI6) | inactive: 0.353

— the supplement of paper PMC11006884
